Construct, isoform or probe ends are uncertain for at least one entry. For part of these data: Negatives hold for the conditions tested.

In series [1] the test system is GST-LcCBF3 (Litchi chinensis). Description: competition with a labelled probe. The note with it: mutated probe did not compete with labeled N1; LightShift chemiluminescent EMSA kit, room temperature, 6% native polyacrylamide gel; salt and pH not stated; recombinant protein; protein details: GST (pGEX-4T-1, N-terminal).
Another series relates to GST. In words: EMSA. The note with it: GST alone; LightShift chemiluminescent EMSA kit, room temperature, 6% native polyacrylamide gel; salt and pH not stated; recombinant protein. On the technique in general: Mobility shift assays separate free from complexed probe on a gel.
Series [2] has as its system GST-LcCBF3 (Litchi chinensis). Description: EMSA. The note with it: unlabeled probe competes; LightShift chemiluminescent EMSA kit, room temperature, 6% native polyacrylamide gel; salt and pH not stated; recombinant protein; protein details: GST (pGEX-4T-1, N-terminal).

For “GTGACATCAAGAGAAAAAAAAGACGACCAC (double strand) [LcMFTpro probe-mutant]”, the binding result in series [1] is listed as “no binding”.

For the sequence “GTGACATCAAGAGCCGACAAAGACGACCAC (double strand) [LcMFTpro probe]”, the binding result in the series with GST is recorded as “no binding”; in series [2], “binds”.

Source of the values: publication PMC10291182.
